These are yes or no findings as the source states them, for the method shown. Sequences can lack the tags named with a protein.
Target: T1, native SOS1 peptide spots with the sequence …1138KIVFRNDL (Arabidopsis thaliana)
T1 sequence (peptide): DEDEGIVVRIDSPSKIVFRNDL
Experiment: peptide or protein array; 15-mer synthetic peptides of SOS1 from amino acid 446, overlapping by 12, spotted on a cellulose membrane; incubated with recombinant 10xHis-14-3-3ω; anti-His antibody, HRP-coupled anti-mouse antibody, ECL; both purified

binding: no binding
B1: recombinant (10xHis)-labelled At14-3-3ω (protein, UniProt Q01525 1-259)
chain: MASGREEFVYMAKLAEQAERYEEMVEFMEKVSAAVDGDELTVEERNLLSVAYKNVIGARRASWRIISSIEQKEESRGNDDHVTAIREYRSKIETELSGICDGILKLLDSRLIPAAASGDSKVFYLKMKGDYHRYLAEFKTGQERKDAAEHTLAAYKSAQDIANAELAPTHPIRLGLALNFSVFYYEILNSPDRACNLAKQAFDEAIAELDTLGEESYKDSTLIMQLLRDNLTLWTSDMQDDAADEIKEAAAPKPTEEQQ

From article PMC7246916, “14-3-3 Proteins and Other Candidates form Protein-Protein Interactions with the Cytosolic C-terminal End of SOS1 Affecting Its Transport Activity” (International Journal of Molecular Sciences, 2020)
